Measurements as given in article PMC13650161.
Results are given in words; binding and its absence hold for the method and conditions named. In cells and extracts the contact can be indirect. Some entries that bind do so weakly or less than the wild type.

Protein sequences, listed by entry. Tags and fused reporters are not part of them. Lines headed by an entry give the natural chain unless they say otherwise; changes in a name come on top.
UniProt Q5LJZ2: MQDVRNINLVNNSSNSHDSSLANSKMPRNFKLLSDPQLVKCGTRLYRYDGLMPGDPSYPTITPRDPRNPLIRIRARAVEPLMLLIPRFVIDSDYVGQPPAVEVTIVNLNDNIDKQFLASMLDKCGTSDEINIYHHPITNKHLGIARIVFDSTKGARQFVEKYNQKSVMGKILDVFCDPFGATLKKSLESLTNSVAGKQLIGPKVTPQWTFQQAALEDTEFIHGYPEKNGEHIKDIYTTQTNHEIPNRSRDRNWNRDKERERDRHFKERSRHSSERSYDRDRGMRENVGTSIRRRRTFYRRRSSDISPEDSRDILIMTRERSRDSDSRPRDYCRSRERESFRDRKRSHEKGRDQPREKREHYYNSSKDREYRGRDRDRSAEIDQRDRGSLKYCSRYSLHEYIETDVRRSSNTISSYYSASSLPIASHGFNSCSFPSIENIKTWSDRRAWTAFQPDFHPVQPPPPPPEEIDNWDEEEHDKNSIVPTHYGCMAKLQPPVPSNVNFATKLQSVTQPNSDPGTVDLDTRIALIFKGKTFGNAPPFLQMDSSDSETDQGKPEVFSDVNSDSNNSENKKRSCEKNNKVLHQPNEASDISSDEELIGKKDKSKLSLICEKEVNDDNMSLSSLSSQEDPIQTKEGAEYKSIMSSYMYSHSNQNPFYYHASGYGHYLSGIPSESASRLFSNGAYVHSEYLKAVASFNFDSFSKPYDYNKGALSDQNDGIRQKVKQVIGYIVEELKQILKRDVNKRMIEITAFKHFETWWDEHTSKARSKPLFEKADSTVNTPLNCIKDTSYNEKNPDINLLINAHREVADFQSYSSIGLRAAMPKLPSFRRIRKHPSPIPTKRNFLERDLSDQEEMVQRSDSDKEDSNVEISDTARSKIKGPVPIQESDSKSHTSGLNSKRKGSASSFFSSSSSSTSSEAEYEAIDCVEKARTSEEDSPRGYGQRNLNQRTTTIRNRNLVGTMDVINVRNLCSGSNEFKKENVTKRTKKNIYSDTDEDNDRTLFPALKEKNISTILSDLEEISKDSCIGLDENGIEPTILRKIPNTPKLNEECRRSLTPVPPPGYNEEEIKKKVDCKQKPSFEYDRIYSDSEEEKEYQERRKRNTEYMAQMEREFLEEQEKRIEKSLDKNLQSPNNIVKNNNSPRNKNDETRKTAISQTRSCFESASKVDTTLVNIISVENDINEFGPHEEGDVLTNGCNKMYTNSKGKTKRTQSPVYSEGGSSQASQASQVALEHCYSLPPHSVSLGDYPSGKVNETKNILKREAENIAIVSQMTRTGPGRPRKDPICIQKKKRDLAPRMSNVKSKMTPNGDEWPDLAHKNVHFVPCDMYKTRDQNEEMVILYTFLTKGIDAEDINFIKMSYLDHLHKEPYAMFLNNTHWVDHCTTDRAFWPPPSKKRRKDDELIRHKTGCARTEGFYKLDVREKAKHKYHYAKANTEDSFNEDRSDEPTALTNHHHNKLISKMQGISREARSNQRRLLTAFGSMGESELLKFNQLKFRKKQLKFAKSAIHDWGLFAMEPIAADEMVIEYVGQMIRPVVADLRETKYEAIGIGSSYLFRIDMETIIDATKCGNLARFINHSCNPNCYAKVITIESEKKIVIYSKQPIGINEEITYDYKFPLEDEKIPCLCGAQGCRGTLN

What was measured:
[1] = molecular target: GFP-Set1^WT (Drosophila melanogaster) (UniProt Q5LJZ2); test: co-IP; GFP-IP with anti-GFP antibody from ovaries without crosslinking treatment; immunoblot
[2] = molecular target: GFP-Set1^E1613K (Drosophila melanogaster) (UniProt Q5LJZ2); test: as above
[3] = molecular target: GFP-Set1^WT (Drosophila melanogaster) (UniProt Q5LJZ2); test: co-IP; GFP-IP with anti-GFP magnetic beads from ovary lysate after crosslinking with 0.1% paraformaldehyde for 10 min at RT; 20 mM Tris-HCl pH 7.5, 135 mM NaCl, 1.5 mM MgCl2, 10% glycerol, 0.2% Triton X-100; 1 h at 4 C; immunoblot
[4] = molecular target: GFP-Set1^E1613K (Drosophila melanogaster) (UniProt Q5LJZ2); test: as above

B1: Piwi (protein, UniProt Q9VKM1 1-843)
chain: MADDQGRGRRRPLNEDDSSTSRGSGDGPRVKVFRGSSSGDPRADPRIEASRERRALEEAPRREGGPTERKPWGDQYDYLNTRPAELVSKKGTDGVPVMLQTNFFRLKTKPEWRIVHYHVEFEPSIENPRVRMGVLSNHANLLGSGYLFDGLQLFTTRKFEQEITVLSGKSKLDIEYKISIKFVGFISCAEPRFLQVLNLILRRSMKGLNLELVGRNLFDPRAKIEIREFKMELWPGYETSIRQHEKDILLGTEITHKVMRTETIYDIMRRCSHNPARHQDEVRVNVLDLIVLTDYNNRTYRINDVDFGQTPKSTFSCKGRDISFVEYYLTKYNIRIRDHNQPLLISKNRDKALKTNASELVVLIPELCRVTGLNAEMRSNFQLMRAMSSYTRMNPKQRTDRLRAFNHRLQNTPESVKVLRDWNMELDKNVTEVQGRIIGQQNIVFHNGKVPAGENADWQRHFRDQRMLTTPSDGLDRWAVIAPQRNSHELRTLLDSLYRAASGMGLRIRSPQEFIIYDDRTGTYVRAMDDCVRSDPKLILCLVPNDNAERYSSIKKRGYVDRAVPTQVVTLKTTKNRSLMSIATKIAIQLNCKLGYTPWMIELPLSGLMTIGFDIAKSTRDRKRAYGALIASMDLQQNSTYFSTVTECSAFDVLANTLWPMIAKALRQYQHEHRKLPSRIVFYRDGVSSGSLKQLFEFEVKDIIEKLKTEYARVQLSPPQLAYIVVTRSMNTRFFLNGQNPPPGTIVDDVITLPERYDFYLVSQQVRQGTVSPTSYNVLYSSMGLSPEKMQKLTYKMCHLYYNWSGTTRVPAVCQYAKKLATLVGTNLHSIPQNALEKKFYYL
binding [1]: no binding (condition: without crosslinking treatment) | binding [2]: no binding (condition: without crosslinking treatment) | binding [3]: binds weakly | binding [4]: binds weakly
